Assay results as given in article PMC4792966.
These are yes or no findings as the source states them, for the method shown. Binding seen in cells or lysates may run through a third protein. A result given as binding can be weak or reduced; the word gives no strength.

Target: T1, Toll-like receptor 9 (mouse (endogenous in peritoneal B cells)) (UniProt Q9EQU3)
T1 sequence: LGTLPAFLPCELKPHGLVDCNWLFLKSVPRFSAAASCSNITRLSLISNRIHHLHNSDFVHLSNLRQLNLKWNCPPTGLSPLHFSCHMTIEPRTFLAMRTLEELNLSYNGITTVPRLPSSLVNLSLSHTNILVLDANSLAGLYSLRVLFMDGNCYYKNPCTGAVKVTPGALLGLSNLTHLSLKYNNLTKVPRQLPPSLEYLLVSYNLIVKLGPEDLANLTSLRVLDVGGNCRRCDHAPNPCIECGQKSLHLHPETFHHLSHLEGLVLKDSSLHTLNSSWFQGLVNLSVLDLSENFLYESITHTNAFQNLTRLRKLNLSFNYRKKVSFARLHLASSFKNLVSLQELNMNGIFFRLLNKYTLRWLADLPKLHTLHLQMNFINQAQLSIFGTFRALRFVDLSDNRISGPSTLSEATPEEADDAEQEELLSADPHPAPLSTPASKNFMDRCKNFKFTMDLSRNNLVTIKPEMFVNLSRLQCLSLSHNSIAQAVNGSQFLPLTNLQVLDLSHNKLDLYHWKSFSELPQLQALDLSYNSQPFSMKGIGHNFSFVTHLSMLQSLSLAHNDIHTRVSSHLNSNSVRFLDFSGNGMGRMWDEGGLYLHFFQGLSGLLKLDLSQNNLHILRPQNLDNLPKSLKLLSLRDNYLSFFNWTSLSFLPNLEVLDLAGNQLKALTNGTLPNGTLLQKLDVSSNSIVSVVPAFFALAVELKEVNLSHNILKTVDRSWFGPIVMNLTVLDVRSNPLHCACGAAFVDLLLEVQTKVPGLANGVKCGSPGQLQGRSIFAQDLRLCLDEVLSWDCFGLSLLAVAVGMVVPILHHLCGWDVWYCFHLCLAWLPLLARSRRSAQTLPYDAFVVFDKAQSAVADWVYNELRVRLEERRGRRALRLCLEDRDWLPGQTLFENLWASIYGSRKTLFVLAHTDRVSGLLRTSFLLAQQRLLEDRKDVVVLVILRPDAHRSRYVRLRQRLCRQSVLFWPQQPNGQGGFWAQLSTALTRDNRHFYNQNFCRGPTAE
Test: proximity ligation; Duolink In Situ Red Starter Kit Mouse/Rabbit; peritoneal B cells on poly-L-lysine coated coverslips, unstimulated or stimulated with CpG (10 min, 2 h), fixed and permeabilised; primary antibodies anti-TLR9, anti-αv and anti-LC3; positive foci per cell counted

binding: binds
Substance: integrin αv (mouse (endogenous in peritoneal B cells)) (receptor)
